Experimental data taken from publication PMC9830517.
Results are given in words; binding and its absence hold for the method and conditions named. In cells and extracts the contact can be indirect. Some entries that bind do so weakly or less than the wild type.

The chains behind the UniProt entries cited, without tags or fusion partners. Residues count along the entry.
UniProt O00206, residues 24-839: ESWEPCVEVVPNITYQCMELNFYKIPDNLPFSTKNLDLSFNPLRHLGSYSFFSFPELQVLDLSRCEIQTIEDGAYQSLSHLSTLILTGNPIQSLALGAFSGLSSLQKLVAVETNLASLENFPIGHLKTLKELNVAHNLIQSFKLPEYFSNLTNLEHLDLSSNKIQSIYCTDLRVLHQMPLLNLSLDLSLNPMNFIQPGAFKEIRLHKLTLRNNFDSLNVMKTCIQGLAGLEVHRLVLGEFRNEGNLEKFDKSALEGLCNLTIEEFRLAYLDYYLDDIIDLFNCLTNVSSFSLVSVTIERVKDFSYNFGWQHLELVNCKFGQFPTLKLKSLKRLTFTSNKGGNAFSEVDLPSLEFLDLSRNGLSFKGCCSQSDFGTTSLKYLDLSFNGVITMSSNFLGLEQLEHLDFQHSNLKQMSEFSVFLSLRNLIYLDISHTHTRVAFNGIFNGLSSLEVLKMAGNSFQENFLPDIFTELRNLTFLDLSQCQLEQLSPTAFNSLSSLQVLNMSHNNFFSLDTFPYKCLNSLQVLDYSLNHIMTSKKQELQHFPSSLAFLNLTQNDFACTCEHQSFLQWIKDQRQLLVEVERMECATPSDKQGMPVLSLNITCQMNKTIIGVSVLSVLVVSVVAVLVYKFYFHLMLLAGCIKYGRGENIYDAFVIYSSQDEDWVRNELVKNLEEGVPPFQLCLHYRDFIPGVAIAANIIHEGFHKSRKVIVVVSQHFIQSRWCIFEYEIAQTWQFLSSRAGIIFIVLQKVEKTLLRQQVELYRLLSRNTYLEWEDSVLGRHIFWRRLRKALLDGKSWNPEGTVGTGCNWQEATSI
UniProt O60603: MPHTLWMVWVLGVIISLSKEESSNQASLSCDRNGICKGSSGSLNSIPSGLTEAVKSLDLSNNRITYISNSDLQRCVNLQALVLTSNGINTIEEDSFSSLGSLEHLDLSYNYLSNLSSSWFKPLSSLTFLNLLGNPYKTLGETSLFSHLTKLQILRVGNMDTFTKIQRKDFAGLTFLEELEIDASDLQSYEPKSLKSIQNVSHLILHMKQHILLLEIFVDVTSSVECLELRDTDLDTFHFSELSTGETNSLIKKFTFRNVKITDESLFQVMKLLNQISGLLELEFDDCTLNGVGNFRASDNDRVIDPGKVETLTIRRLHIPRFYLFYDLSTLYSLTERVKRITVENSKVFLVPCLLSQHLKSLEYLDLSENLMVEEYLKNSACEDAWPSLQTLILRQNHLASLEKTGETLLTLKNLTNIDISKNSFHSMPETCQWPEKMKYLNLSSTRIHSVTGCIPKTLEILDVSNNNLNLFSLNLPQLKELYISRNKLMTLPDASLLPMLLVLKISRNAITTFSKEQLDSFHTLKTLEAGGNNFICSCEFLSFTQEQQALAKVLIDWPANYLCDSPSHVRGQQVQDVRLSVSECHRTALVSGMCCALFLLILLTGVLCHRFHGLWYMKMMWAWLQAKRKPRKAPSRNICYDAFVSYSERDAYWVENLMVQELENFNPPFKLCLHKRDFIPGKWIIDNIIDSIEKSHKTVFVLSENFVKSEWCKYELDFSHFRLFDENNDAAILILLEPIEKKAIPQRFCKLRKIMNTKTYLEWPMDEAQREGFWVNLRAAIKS

Legend:
[1] = molecular target: toll like receptor 4 (TLR4) (human (endogenous in HMrSV5)) (UniProt O00206); experiment: co-IP; lysate of HMrSV5 after co-culture with Oe-BGN AGS for 96h; supernatant incubated with anti-BGN antibody, IgG, TLR2 antibody or TLR4 antibody overnight at 4 °C; Protein A/G agarose beads 12h at 4 °C; western blot
[2] = molecular target: toll like receptor 2 (TLR2) (human (endogenous in HMrSV5)) (UniProt O60603); experiment: as above

binding [1]: binds
binding [2]: binds
B1: biglycan (BGN) (ligand, UniProt P21810 38-368)
chain: DEEASGADTSGVLDPDSVTPTYSAMCPFGCHCHLRVVQCSDLGLKSVPKEISPDTTLLDLQNNDISELRKDDFKGLQHLYALVLVNNKISKIHEKAFSPLRKLQKLYISKNHLVEIPPNLPSSLVELRIHDNRIRKVPKGVFSGLRNMNCIEMGGNPLENSGFEPGAFDGLKLNYLRISEAKLTGIPKDLPETLNELHLDHNKIQAIELEDLLRYSKLYRLGLGHNQIRMIENGSLSFLPTLRELHLDNNKLARVPSGLPDLKLLQVVYLHSNNITKVGVNDFCPMGFGVKRAYYNGISLFNNPVPYWEVQPATFRCVTDRLAIQFGNYKK
